In PubChem BioAssay AID624404 (Broad Institute, 2012):
Screen size: about 1,800 compounds; about 710 (39%) were called active. About 28% were inconclusive and are not listed.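 How the source made its calls: active means luciferase signal rise whose fitted curve crosses a set activity limit at or below the top valid tested dose; inconclusive means flat fit with 30 to 70% rise, or poor fit; inactive means signal falling, flat within 30%, or crossing above top dose.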 Only a part is listed here, and it is no random draw. Results with a measured potency or affinity are listed apart.

Assay: luciferase activators in glycosylation-insensitive reporter cells, dose response, counter-screen for N-linked glycosylation inhibitor project, D54 LucT cells, luminescence, cherry pick (AID 624404);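 further: 0% = median neutral control signal and 100% = twice that signal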
Conditions: D54 LucT luciferase reporter counterscreen, 24 h; at 19.5 µM (top of the series)
With CC(C)N1C(=O)/C(=C/C=C/c2ccco2)C(=O)N(Cc2ccco2)C1=O the activity increase (luciferase signal) was inactive: 13.5%.
In the case of Cc1ccc(-c2nc(N(C)C3CCN(C)CC3)c3ccccc3n2)cc1, the activity increase (luciferase signal) is reported as inactive: 51.2%.
With CN1CN(c2ccccc2)C2(CCN(CCCSc3ccccc3NC(=O)/C=C/c3ccccc3)CC2)C1=O the activity increase (luciferase signal) was inactive: -49.9%.
For CNC(=O)c1cccn(Cc2cc(C(F)(F)F)cc(C(F)(F)F)c2)c1=O, the activity increase (luciferase signal) was inactive: 40.2%.
In the case of O=C1NC(=O)N(c2ccccc2)C(=O)/C1=C/C=C/c1ccco1, the activity increase (luciferase signal) is reported as inactive: 25.5%.
For CN(C)c1ccc(/C=C/C=C/c2sc3ccccc3[n+]2C)cc1, the activity increase (luciferase signal) was inactive: -48.2%.
In the case of Cc1cc(C)cc(N2C(=O)NC(=O)/C(=C\C=C\c3ccco3)C2=O)c1, the activity increase (luciferase signal) is reported as inactive: -42.4%.
With Cc1cc(C)nc(N2Cc3ccccc3C2=N)n1 the activity increase (luciferase signal) was inactive: 36.9%.
For C=CCN=C(SCC(=O)c1ccc(Cl)cc1)c1c(O)n(C)c(=O)n(C)c1=O, the activity increase (luciferase signal) was inactive: 35.5%.
With COC(=O)C1=C(c2cc3ccccc3s2)C[C@@H]2CC[C@H]1N2C(=O)N1CCOCC1 the activity increase (luciferase signal) was inactive: 25.6%.
For CN1C(=O)C(=Cc2sc(=O)n(-c3ccccc3)c2N(C)C)C(=O)N(C)C1=O, the activity increase (luciferase signal) was inactive: 37.7%.
With Cc1ccc(N2C(=O)NC(=O)/C(=C\C=C\c3ccco3)C2=O)cc1C the activity increase (luciferase signal) was inactive: -14.1%.
In the case of Cn1cccc1/C=C1\C(=O)NC(=O)N(Cc2ccccc2Cl)C1=O, the activity increase (luciferase signal) is reported as inactive: 0.633%.
With COC(=O)C1=C(c2cc3ccccc3s2)C[C@@H]2CC[C@H]1N2C(=O)N1CCCCC1 the activity increase (luciferase signal) was inactive: 4.2%.
For COC(=O)C1=C(c2cc3ccccc3o2)C[C@@H]2CC[C@H]1N2C(=O)N1CCCCC1, the activity increase (luciferase signal) was inactive: 21.4%.
For COc1cc2c(cc1OC)-c1c3c(cc4c1[C@@H](C2)N(C)CC4)OCO3, the activity increase (luciferase signal) was inactive: 26.9%.
In the case of O=C1Nc2ccccc2/C1=C/c1nc2ccccc2c(=O)n1-c1ccc(O)cc1, the activity increase (luciferase signal) is reported as inactive: -28.1%.
With COC12CCC3(CC1C(C)(O)C(C)(C)C)[C@H]1Cc4ccc(O)c5c4[C@@]3(CCN1CC1CC1)C2O5 (stereo partly specified) the activity increase (luciferase signal) was inactive: -11.4%.
With Nc1c(C(=O)OCC2CCCO2)c2nc3ccccc3nc2n1Cc1cccs1 (stereo unspecified) the activity increase (luciferase signal) was inactive: -5%.
With COC(=O)C1=C(c2cc3ccccc3o2)C[C@@H]2CC[C@H]1N2C(=O)N1CCOCC1 the activity increase (luciferase signal) was inactive: 37.2%.
With CCC(C)OC(=O)c1c(N)n(Cc2cccs2)c2nc3ccccc3nc12 (stereo unspecified) the activity increase (luciferase signal) was inactive: -4.78%.
